In paper PMC6403468:
These are yes or no findings as the source states them, for the method shown. In cells and extracts the contact can be indirect. Some entries that bind do so weakly or less than the wild type.

Amino acid sequences for entries named in this document (tags omitted). Residues count along the entry.
UniProt Q924X6, residues 29-996: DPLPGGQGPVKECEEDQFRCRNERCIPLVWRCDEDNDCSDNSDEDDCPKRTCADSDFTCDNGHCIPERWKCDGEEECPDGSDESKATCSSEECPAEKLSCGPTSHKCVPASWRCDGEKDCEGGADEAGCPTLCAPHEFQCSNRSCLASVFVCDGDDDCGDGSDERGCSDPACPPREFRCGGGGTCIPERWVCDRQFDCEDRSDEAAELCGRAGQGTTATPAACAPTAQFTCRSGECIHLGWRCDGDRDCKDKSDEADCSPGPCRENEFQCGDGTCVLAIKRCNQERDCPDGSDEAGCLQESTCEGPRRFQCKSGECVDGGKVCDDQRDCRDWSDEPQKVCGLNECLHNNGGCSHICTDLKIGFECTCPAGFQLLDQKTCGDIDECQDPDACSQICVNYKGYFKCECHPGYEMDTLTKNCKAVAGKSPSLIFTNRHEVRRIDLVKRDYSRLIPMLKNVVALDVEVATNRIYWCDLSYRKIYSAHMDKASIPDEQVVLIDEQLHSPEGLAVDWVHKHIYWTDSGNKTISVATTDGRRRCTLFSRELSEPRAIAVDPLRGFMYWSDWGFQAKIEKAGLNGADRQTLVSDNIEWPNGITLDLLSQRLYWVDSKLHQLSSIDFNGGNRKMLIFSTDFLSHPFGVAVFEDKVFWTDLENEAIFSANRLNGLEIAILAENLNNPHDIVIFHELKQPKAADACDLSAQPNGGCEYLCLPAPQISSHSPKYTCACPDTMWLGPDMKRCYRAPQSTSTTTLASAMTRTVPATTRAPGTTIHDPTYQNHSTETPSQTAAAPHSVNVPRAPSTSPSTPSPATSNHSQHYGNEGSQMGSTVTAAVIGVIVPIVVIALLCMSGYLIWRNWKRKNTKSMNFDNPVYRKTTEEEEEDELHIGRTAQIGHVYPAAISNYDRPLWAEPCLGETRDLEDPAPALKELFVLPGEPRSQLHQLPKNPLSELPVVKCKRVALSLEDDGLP

Biological target: ApoER2 fused to monomeric GFP (ApoER2_mGFP) (UniProt Q924X6)
Test: co-IP; HEK293 cells expressing mGFP- and mCherry-tagged copies of one receptor, NP-40 lysis buffer, anti-GFP crosslinked to Protein A Sepharose, western blot with anti-mCherry

With “ApoER2 fused to mCherry (ApoER2_mCherry) (from UniProt Q924X6 29-996) (receptor)” the binding was “binds”.
